Measurements as given in patent publication US8110687B2, “Bicyclic compounds with kinase inhibitory activity” (Millennium Pharmaceuticals, Inc., priority 2005, dated 2012).
Where two headings read alike, the source gives them in different places. Some of these results come from one statement about several compounds together.

Sequences of proteins named here, by UniProt entry; tags and fusion partners are left off.
UniProt P15056, whole entry, stated change not applied: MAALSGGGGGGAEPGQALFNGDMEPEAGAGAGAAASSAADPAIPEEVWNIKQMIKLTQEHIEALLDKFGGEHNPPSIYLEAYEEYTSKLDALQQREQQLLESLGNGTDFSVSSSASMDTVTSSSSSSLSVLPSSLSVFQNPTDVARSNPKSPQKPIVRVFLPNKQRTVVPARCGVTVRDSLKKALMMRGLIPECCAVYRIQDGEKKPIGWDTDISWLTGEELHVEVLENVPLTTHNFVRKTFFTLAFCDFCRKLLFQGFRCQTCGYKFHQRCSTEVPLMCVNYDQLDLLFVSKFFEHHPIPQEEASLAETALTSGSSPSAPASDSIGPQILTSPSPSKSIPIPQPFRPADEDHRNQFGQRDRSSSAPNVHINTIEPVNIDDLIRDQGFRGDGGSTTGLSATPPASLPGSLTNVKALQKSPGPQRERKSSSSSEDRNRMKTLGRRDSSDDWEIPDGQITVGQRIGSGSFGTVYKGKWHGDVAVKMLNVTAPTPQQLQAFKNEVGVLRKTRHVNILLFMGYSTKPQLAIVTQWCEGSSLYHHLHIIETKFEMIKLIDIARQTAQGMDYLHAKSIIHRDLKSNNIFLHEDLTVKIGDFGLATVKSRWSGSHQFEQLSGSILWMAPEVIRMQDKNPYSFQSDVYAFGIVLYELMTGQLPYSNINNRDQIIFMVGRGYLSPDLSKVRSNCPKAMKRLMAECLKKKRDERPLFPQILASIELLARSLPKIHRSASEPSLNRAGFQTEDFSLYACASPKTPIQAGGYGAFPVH

Biological target: B-Raf (V599E or Wild Type) (Homo sapiens, UniProt P15056)
Assay: B-Raf Flash Plate assay
Format: biochemical
Conditions: Peptide 118, 0.5 μM ATP, 60 minutes
[1] = read-out: IC50, inhibition of the enzyme in B-Raf Flash Plate assay
[2] = read-out: IC50 in B-Raf Flash Plate assay

With `CC(=O)Nc1cc(Oc2ccc3c(c2)CC(NC(=O)c2cccc(C(F)(F)F)c2)CC3)ccn1` (centres unmarked) [Compound I-432, N-(7-{[2-(acetylamino)pyridin-4-yl]oxy}-1,2,3,4-tetrahydronaphthalen-2-yl)-3-(trifluoromethyl)benzamide] the IC50 [1] was ≤ 1000 nM and the IC50 [2] was < 50 nM.

With `O=C(Nc1cc(CN2CC[C@H](O)C2)cc(C(F)(F)F)c1)C1CCc2ccc(Oc3ccnc(NC(=O)C4CC4)c3)cc2C1` (stereo partly drawn) [Compound I-249, 7-({2-[(cyclopropylcarbonyl)amino]pyridin-4-yl}oxy)-N-[3-{[(3S)-3-hydroxypyrrolidin-1-yl]methyl}-5-(trifluoromethyl)phenyl]-1,2,3,4-tetrahydronaphthalene-2-carboxamide] the IC50 [1] was ≤ 1000 nM and the IC50 [2] was < 50 nM.

For `CNC(=O)c1cc(Oc2ccc3c(c2)C=C(C(=O)Nc2cc(CN)cc(C(F)(F)F)c2)CO3)ccn1` [Compound I-402, 4-{[3-({[3-(aminomethyl)-5-(trifluoromethyl)phenyl]amino}carbonyl)-2H-chromen-6-yl]oxy}-N-methylpyridine-2-carboxamide], the IC50 [1] was ≤ 1000 nM and the IC50 [2] was < 50 nM.

In the case of `Cn1nnc(-c2cc(Oc3ccc4c(c3)CC(C(=O)Nc3cccc(C(C)(C)C)c3)CC4)ccn2)n1` (centres unmarked) [Compound I-334, N-(3-tert-butylphenyl)-7-{[2-(2-methyl-2H-tetrazol-5-yl)pyridin-4-yl]oxy}-1,2,3,4-tetrahydronaphthalene-2-carboxamide], the IC50 [1] is reported as ≤ 1000 nM and the IC50 [2] is reported as < 50 nM.

With `CC(C)(C)c1cccc(NC(=O)C2CCc3ccc(Oc4ccnc(C5=NCCO5)c4)cc3C2)c1` (centres unmarked) [Compound I-305, N-(3-tert-butylphenyl)-7-{[2-(4,5-dihydro-1,3-oxazol-2-yl)pyridin-4-yl]oxy}-1,2,3,4-tetrahydronaphthalene-2-carboxamide] the IC50 [1] was ≤ 1000 nM and the IC50 [2] was < 50 nM.

With `CC(=O)Nc1cc(Oc2ccc3ccc(C(=O)Nc4ccc(Cl)c(C(F)(F)F)c4)cc3c2)ccn1` [Compound I-88, 7-{[2-(acetylamino)pyridin-4-yl]oxy}-N-[4-chloro-3-(trifluoromethyl)phenyl]-2-naphthamide] the IC50 [1] was ≤ 1000 nM and the IC50 [2] was < 50 nM.

For `CNC(=O)c1cc(Oc2ccc3c(c2)C=C(C(=O)Nc2cc(OCCN4CCCC4)cc(C(F)(F)F)c2)CO3)ccn1` [Compound I-298, N-methyl-4-{[3-({[3-(2-pyrrolidin-1-ylethoxy)-5-(trifluoromethyl)phenyl]amino}carbonyl)-2H-chromen-6-yl]oxy}pyridine-2-carboxamide], the IC50 [1] was ≤ 1000 nM and the IC50 [2] was < 50 nM.

`CNC(=O)c1cc(Oc2ccc3c(c2)CC(C(=O)Nc2ccc(CN4CCN(C)CC4)c(C(F)(F)F)c2)CC3)ccn1` (centres unmarked) [Compound I-452, N-methyl-4-{[7-({[4-[(4-methylpiperazin-1-yl)methyl]-3-(trifluoromethyl)phenyl]amino}carbonyl)-5,6,7,8-tetrahydronaphthalen-2-yl]oxy}pyridine-2-carboxamide] was tested, and the IC50 [2] was < 50 nM.

`O=C(Nc1ccc(CN2CCCC2)c(C(F)(F)F)c1)C1CCc2ccc(Oc3ccnc(C4=NCCN4)c3)cc2C1` (centres unmarked) [Compound I-427, 7-{[2-(4,5-dihydro-1H-imidazol-2-yl)pyridin-4-yl]oxy}-N-[4-(pyrrolidin-1-ylmethyl)-3-(trifluoromethyl)phenyl]-1,2,3,4-tetrahydronaphthalene-2-carboxamide] was tested, and the IC50 [2] was < 50 nM.

`Cc1cnc(-c2cc(Oc3ccc4ncc(C(=O)Nc5cc(OCCN6CCCC6)cc(C(F)(F)F)c5)cc4c3)ccn2)[nH]1` [Compound I-409, 6-{[2-(5-methyl-1H-imidazol-2-yl)pyridin-4-yl]oxy}-N-[3-(2-pyrrolidin-1-ylethoxy)-5-(trifluoromethyl)phenyl]quinoline-3-carboxamide] was tested, and the IC50 [1] was ≤ 1000 nM and the IC50 [2] was < 50 nM.

For `O=C(Nc1cc(OCCN2CCCC2)cc(C(F)(F)F)c1)c1ccc2ccc(Oc3ccnc(NC(=O)C4CC4)c3)cc2c1` [Compound I-224, 7-({2-[(cyclopropylcarbonyl)amino]pyridin-4-yl}oxy)-N-[3-(2-pyrrolidin-1-ylethoxy)-5-(trifluoromethyl)phenyl]-2-naphthamide], the IC50 [1] was ≤ 1000 nM and the IC50 [2] was < 50 nM.

In the case of `CNC(=O)c1cc(Oc2ccc3c(c2)CC(C(=O)Nc2cc(CN(C)C(=O)OC(C)(C)C)cc(C(F)(F)F)c2)CC3)ccn1` (centres unmarked) [Compound I-328, tert-butyl methyl[3-({[7-({2-[(methylamino)carbonyl]pyridin-4-yl}oxy)-1,2,3,4-tetrahydronaphthalen-2-yl]carbonyl}amino)-5-(trifluoromethyl)benzyl]carbamate], the IC50 [1] is reported as ≤ 1000 nM.

For `CNCc1ccc(NC(=O)C2CCc3ccc(Oc4ccnc(NC(C)=O)c4)cc3C2)cc1C(F)(F)F` (centres unmarked) [Compound I-282, 7-{[2-(acetylamino)pyridin-4-yl]oxy}-N-[4-[(methylamino)methyl]-3-(trifluoromethyl)phenyl]-1,2,3,4-tetrahydronaphthalene-2-carboxamide], the IC50 [1] was ≤ 1000 nM and the IC50 [2] was < 50 nM.

For `O=C(Nc1ccc(Br)c(C(F)(F)F)c1)C1CCc2ccc(Oc3ccnc(C4=NCCN4)c3)cc2C1` (centres unmarked) [Compound I-8, N-[4-bromo-3-(trifluoromethyl)phenyl]-7-{[2-(4,5-dihydro-1H-imidazol-2-yl)pyridin-4-yl]oxy}-1,2,3,4-tetrahydronaphthalene-2-carboxamide], the IC50 [1] was ≤ 1000 nM.

With `CC(C)c1cccc(NC(=O)C2CCc3ccc(Oc4ccnc(C5=NCCN5)c4)cc3C2)c1` (centres unmarked) [Compound I-25, 7-{[2-(4,5-dihydro-1H-imidazol-2-yl)pyridin-4-yl]oxy}-N-(3-isopropylphenyl)-1,2,3,4-tetrahydronaphthalene-2-carboxamide] the IC50 [1] was ≤ 1000 nM and the IC50 [2] was < 50 nM.

For `CC(C)(C)c1cccc(NC(=O)c2ccc3ccc(Oc4ccnc(-c5ncc(CNCCN)[nH]5)c4)cc3c2)c1` [Compound I-390, 7-{[2-(5-{[(2-aminoethyl)amino]methyl}-1H-imidazol-2-yl)pyridin-4-yl]oxy}-N-(3-tert-butylphenyl)-2-naphthamide], the IC50 [1] was ≤ 1000 nM and the IC50 [2] was < 50 nM.

For `CNC(=O)c1cc(Oc2ccc3c(c2)CC(C(=O)Nc2ccc(CN)cc2)CC3)ccn1` (centres unmarked) [Compound I-42, 4-{[7-({[4-(aminomethyl)phenyl]amino}carbonyl)-5,6,7,8-tetrahydronaphthalen-2-yl]oxy}-N-methylpyridine-2-carboxamide], the IC50 [1] was ≤ 1000 nM.

In the case of `CC(C)(C)c1cc(CN)cc(NC(=O)C2CCc3ccc(Oc4ccnc(NC(=O)C5CC5)c4)cc3C2)c1` (centres unmarked) [Compound I-212, N-[3-(aminomethyl)-5-tert-butylphenyl]-7-({2-[(cyclopropylcarbonyl)amino]pyridin-4-yl}oxy)-1,2,3,4-tetrahydronaphthalene-2-carboxamide], the IC50 [1] is reported as ≤ 1000 nM and the IC50 [2] is reported as < 50 nM.

`CNC(=O)c1cc(Oc2ccc3ccc(C(=O)Nc4cccc(C(C)(C)C)c4)cc3c2)ccn1` [Compound I-37, 4-[(7-{[(3-tert-butylphenyl)amino]carbonyl}-2-naphthyl)oxy]-N-methylpyridine-2-carboxamide] was tested, and the IC50 [1] was ≤ 1000 nM.

With `COc1cc(NC(=O)C2CCc3ccc(Oc4ccnc(C5=NCCN5)c4)cc3C2)cc(C(F)(F)F)c1` (centres unmarked) [Compound I-20, 7-{[2-(4,5-dihydro-1H-imidazol-2-yl)pyridin-4-yl]oxy}-N-[3-methoxy-5-(trifluoromethyl)phenyl]-1,2,3,4-tetrahydronaphthalene-2-carboxamide] the IC50 [1] was ≤ 1000 nM.

In the case of `NCc1ccc(NC(=O)c2ccc3ccc(Oc4ccnc(-c5nc(CO)c[nH]5)c4)cc3c2)cc1C(F)(F)F` [Compound I-411, N-[4-(aminomethyl)-3-(trifluoromethyl)phenyl]-7-({2-[4-(hydroxymethyl)-1H-imidazol-2-yl]pyridin-4-yl}oxy)-2-naphthamide], the IC50 [1] is reported as ≤ 1000 nM and the IC50 [2] is reported as < 50 nM.

With `CCN(CC)Cc1cc(NC(=O)C2CCc3ccc(Oc4ccnc(NC(C)=O)c4)cc3C2)cc(C(F)(F)F)c1` (centres unmarked) [Compound I-255, 7-{[2-(acetylamino)pyridin-4-yl]oxy}-N-[3-[(diethylamino)methyl]-5-(trifluoromethyl)phenyl]-1,2,3,4-tetrahydronaphthalene-2-carboxamide] the IC50 [1] was ≤ 1000 nM and the IC50 [2] was < 50 nM.

`NCc1ccc(NC(=O)c2cnc3ccc(Oc4ccnc(-c5ncc[nH]5)c4)cc3c2)cc1C(F)(F)F` [Compound I-315, N-[4-(aminomethyl)-3-(trifluoromethyl)phenyl]-6-{[2-(1H-imidazol-2-yl)pyridin-4-yl]oxy}quinoline-3-carboxamide] was tested, and the IC50 [1] was ≤ 1000 nM and the IC50 [2] was < 50 nM.

In the case of `O=C(Nc1cc(OCCN2CCCC2)cc(C(F)(F)F)c1)C1CCc2ccc(Oc3ccnc(NC(=O)C4CC4)c3)cc2C1` (centres unmarked) [Compound I-199, 7-({2-[(cyclopropylcarbonyl)amino]pyridin-4-yl}oxy)-N-[3-(2-pyrrolidin-1-ylethoxy)-5-(trifluoromethyl)phenyl]-1,2,3,4-tetrahydronaphthalene-2-carboxamide], the IC50 [1] is reported as ≤ 1000 nM and the IC50 [2] is reported as < 50 nM.

With `CNCc1cc(NC(=O)C2CCc3ccc(Oc4ccnc(NC(C)=O)c4)cc3C2)cc(C(F)(F)F)c1` (centres unmarked) [Compound I-326, 7-{[2-(acetylamino)pyridin-4-yl]oxy}-N-[3-[(methylamino)methyl]-5-(trifluoromethyl)phenyl]-1,2,3,4-tetrahydronaphthalene-2-carboxamide] the IC50 [1] was ≤ 1000 nM and the IC50 [2] was < 50 nM.

`CN1CCN(C(=O)c2c[nH]c(-c3cc(Oc4ccc5ncc(C(=O)Nc6cccc(C(C)(C)C)c6)cc5c4)ccn3)n2)CC1` [Compound I-392, N-(3-tert-butylphenyl)-6-[(2-{4-[(4-methylpiperazin-1-yl)carbonyl]-1H-imidazol-2-yl}pyridin-4-yl)oxy]quinoline-3-carboxamide] was tested, and the IC50 [1] was ≤ 1000 nM and the IC50 [2] was < 50 nM.

`NCc1cc(NC(=O)C2CCc3ccc(Oc4ccnc5c4CCC(=O)N5)cc3C2)cc(C(F)(F)F)c1` (centres unmarked) [Compound I-191, N-[3-(aminomethyl)-5-(trifluoromethyl)phenyl]-7-[(7-oxo-5,6,7,8-tetrahydro-1,8-naphthyridin-4-yl)oxy]-1,2,3,4-tetrahydronaphthalene-2-carboxamide] was tested, and the IC50 [1] was ≤ 1000 nM and the IC50 [2] was < 50 nM.
